Reference: article PMC10518020, “Structure of the peroxisomal Pex1/Pex6 ATPase complex bound to a substrate” (Nature Communications, 2023)
No constants are given. Whether binding was seen depends on the method and setting. Some results given as binding are weak or reduced against the parent protein; the word gives no strength. Where a sequence is shown, tags or fusion partners need not be part of it.

Target: T1, Pex1-Strep2 (S. cerevisiae Pex1, WT) (S. cerevisiae) (UniProt P24004)
T1 sequence: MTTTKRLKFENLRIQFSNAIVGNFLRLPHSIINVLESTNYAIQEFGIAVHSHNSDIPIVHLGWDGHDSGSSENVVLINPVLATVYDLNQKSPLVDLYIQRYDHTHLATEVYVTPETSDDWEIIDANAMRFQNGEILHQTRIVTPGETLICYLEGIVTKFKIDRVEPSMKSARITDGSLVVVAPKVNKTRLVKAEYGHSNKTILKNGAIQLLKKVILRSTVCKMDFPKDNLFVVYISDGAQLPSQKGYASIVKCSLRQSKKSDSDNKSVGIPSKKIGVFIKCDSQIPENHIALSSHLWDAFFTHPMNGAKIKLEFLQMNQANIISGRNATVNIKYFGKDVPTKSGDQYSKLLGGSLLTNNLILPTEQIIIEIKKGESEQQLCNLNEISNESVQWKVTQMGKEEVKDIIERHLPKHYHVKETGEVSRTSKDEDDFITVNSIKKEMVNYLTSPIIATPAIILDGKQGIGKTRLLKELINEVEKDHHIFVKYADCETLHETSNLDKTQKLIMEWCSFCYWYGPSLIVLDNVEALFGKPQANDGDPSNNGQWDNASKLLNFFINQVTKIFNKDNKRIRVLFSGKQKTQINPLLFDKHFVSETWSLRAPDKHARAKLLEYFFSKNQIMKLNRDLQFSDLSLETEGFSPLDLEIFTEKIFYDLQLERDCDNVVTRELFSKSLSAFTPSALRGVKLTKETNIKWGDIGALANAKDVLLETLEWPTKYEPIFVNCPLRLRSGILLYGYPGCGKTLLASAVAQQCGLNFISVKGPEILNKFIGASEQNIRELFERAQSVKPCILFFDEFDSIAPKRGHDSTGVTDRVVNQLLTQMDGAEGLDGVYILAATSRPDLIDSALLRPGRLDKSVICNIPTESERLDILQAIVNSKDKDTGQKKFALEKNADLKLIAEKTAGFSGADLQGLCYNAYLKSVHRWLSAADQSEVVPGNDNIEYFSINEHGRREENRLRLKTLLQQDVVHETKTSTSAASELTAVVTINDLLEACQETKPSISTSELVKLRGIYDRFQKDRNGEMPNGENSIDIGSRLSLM
Experiment: cryo-EM structure; Pex1-Strep2/His-Pex6(E832Q) co-expressed in S. cerevisiae, purified by strep-tactin and SEC with 1-3 mM ATP; no substrate added; single particle cryo-EM, two states from one sample (class 3 single-seam, class 4 twin-seam); both purified

binding: binds
B1: His-Pex6(E832Q) (S. cerevisiae Pex6, Walker B mutant of D2) (enzyme, UniProt P33760 1-1030)
chain: MKASLTFSLSGIYAPCSISRDIYLEYGDKKAECLYGTIRLPQYGPGCTPGKIVHCVLDDSLPFCSIVVPSKLFGFMPTQPTMDFCYFEPILDNVVPVLDSVTFLINEQLYSKLMDLPQEMQQIQFLHYKYNINSMETVVHSRDILTSGLCQILNCSPFPQGLVDFTETQLILVNDTEQKLSALKYANEDEEYALPKIGTNSALSIDLESLPCTISRDLLRPAPHINDDNSIYAFTDAETLLRLDVTSGSFITVSNMGCVRLVKLFVLLLPNGFKKRTIYAPPKIIASFPDCSVVTISKSNIGHTDIPIANQVFISRVGGWLQSQKCFQNIILTTLKKFFSESKRILCQNDLIPIAFDSSMADLNIAEENDESDDEDELGQYYKNDSLVWFFVTSAELDCFSKDNSHFIIDPNRTKLITTNITNRRPLPLSRSNLQRYYGFAETFYYDLHIFPYVRQLVNILETSFNCSQRGITLNASVLLHSTTNNVGKATMVRFASKYLGIHLLEIDCLSLTSNSRQLDSTSKIIGYIRAKCENVLPYASPAVIFLAHLDSILLDVNANQDPEAIKLQKSINFEMSKLLDDFTFKFPGTTFVGSVNNIDNVPSSFRSHMRFEILVPVPSEAQRLRIFQWYLSSHELNRDVQQKVPVSYMDNISFSSLSSYSAGLTPLDIKSIVETARMTATARFYQESKKCGWLPQSILITQEDLSKATSKARNEFSVSIGAPQIPNVTWDDIGGIDFVKGEILDTIDMPLKHPELFTSGMKKRSGILFYGPPGTGKTLMAKAIATNFSLNFFSVKGPELLNMYIGESEANVRRVFQKAREAKPCVIFFDQIDSVAPKRGNQGDSGGVMDRIVSQLLAELDGMSTDADGVFVIGATNRPDLLDEALLRPGRFDKLLYLGIPDTDTKQLNILEALTRKFVLDNDVKLIELAKLCPFNYTGADFYALCSDAMLNAMSRIARMVEKKVSQHNELTGENISTRRWFDKIATKEDTKVVVKMEDFLKAQEQLTPSVSRAELNHYEAVRANFEGA
